## Results of single-concentration screens

Source: ChEMBL document CHEMBL3988442, “University of Dundee, Small-Polar-MMV Screening Library” (2021).

Results are given as percent effect.
The controls that fix the scale are not given in the record; negative values are as filed.
Compounds were drawn at random from those tested, without regard to their results.

A: 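Whole-parasite assay of Trypanosoma brucei over 72 hours; the read-out is not stated. Tested at 30 µM. Direction is inferred from retests: higher values go with stronger inhibition. Values scatter widely below zero; nearly all retest evidence comes from the higher of the two concentrations used. Size under these conditions: about 64,000 compounds, about 940 of them at 50% or above in at least one test.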
B: 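Assay of Toxoplasma gondii numbers, read through their beta-galactosidase reporter with a colour substrate. Concentration: 10 µM. Higher reads as fewer parasites (inferred from which compounds were picked for retests). Size under these conditions: about 67,000 compounds, about 260 of them at 50% or above in at least one test.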
C: 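Cell assay of Leishmania donovani living inside macrophages; the read-out is not stated. Concentration: 30 µM. Direction is inferred from retests: higher values go with stronger inhibition. Of about 69,000 compounds tested this way, about 1,000 (1.5%) reached 50% or more in at least one test.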

{"smiles": "CCS(=O)(=O)NCCNC(=O)c1cc(Cl)c2c(c1)OCCCO2", "A": 9.804, "B": 3.349, "C": 35.29}
{"smiles": "CC(=O)N1CCN(C(=O)C(C)Nc2ccc3ncsc3c2)CC1", "stereo": "stereo not drawn", "A": -3.444, "B": 1.23, "C": -12.15}
{"smiles": "Cc1ccc(CNc2ccccc2SCCC(N)=O)s1", "A": -29.31, "B": 2.024, "C": 58.74}
{"smiles": "Cn1cc(C2COC3(CCN(C(=O)c4ccsc4)CC3)C2)cn1", "stereo": "stereo not drawn", "A": -723.8, "B": 8.565, "C": 26.64}
{"smiles": "Cc1nc(COCc2nc3c(o2)CN(C(=O)c2ccc[nH]2)C3)cs1.O=C(O)C(F)(F)F", "A": -42.38, "B": 5.372, "C": 41.02}
{"smiles": "COc1ccc(CC(=O)NC(C)c2nc3cccnc3n2C(C)C)cc1", "stereo": "stereo not drawn", "A": 6.112, "B": 18.52, "C": 13.55}
{"smiles": "COc1cc2c(nn1)CCN(Cc1ncc(C(C)(C)C)o1)C2", "A": -269.7, "B": -7.394, "C": -29.92}
{"smiles": "COc1ccccc1[C@@H]1CN(Cc2cnn(C)c2C)C[C@H]1C(=O)O", "A": -19.64, "B": -0.8683, "C": -19.35}
{"smiles": "[H][C@@]12CS(=O)(=O)C[C@]1([H])N(C(=O)c1cn3ccsc3n1)CCN2C", "A": -5.852, "B": -5.431, "C": -1.523}
{"smiles": "CC1=C(c2ccc(F)cc2)S(=O)(=O)N=C1N1CCc2ccccc21", "A": -14.7, "B": -13.17, "C": -26.91}
{"smiles": "Cl.Cl.c1ccc(COC[C@H]2CCC[C@@]23CNCCO3)nc1", "A": -51.33, "B": 0.2078, "C": 17.93}
{"smiles": "CC(C(=O)NC(N)=O)N(C)CCCc1cc(-c2ccccc2)no1", "stereo": "stereo not drawn", "B": 15.41, "C": 36.59}
{"smiles": "O=C1CC(NS(=O)(=O)c2ccc(Cl)cc2)CN1", "stereo": "stereo not drawn", "A": -39.26, "B": 4.923, "C": -14.75}
{"smiles": "CSCCC(NC(=O)C1CC1)C(=O)N(C)Cc1ccsc1", "stereo": "stereo not drawn", "A": -81.61, "B": 0.459, "C": 3.889}
{"smiles": "CN(Cc1cccs1)C(=O)CN1CCCC(Cn2cncn2)C1", "stereo": "stereo not drawn", "B": 3.805, "C": 30.18}
{"smiles": "Cn1c(CCC(=O)N2CCC3(CCCO3)CC2)nc2cccnc21", "A": -59.51, "B": 7.043, "C": 11.38}
{"smiles": "CCc1cc(=O)[nH]c(-c2ccc(NCCc3ccc(O)cc3)nc2)n1", "A": 28.95, "B": 56.82, "C": 10.3}
{"smiles": "O=C(O)C(F)(F)F.O=C(O)C(F)(F)F.[H][C@]12CC(Cn3cccn3)N(C)[C@@]1([H])CCN(C(=O)c1cccc(C#N)c1)C2", "stereo": "stereo partly drawn", "A": -10.94, "B": 4.102, "C": -6.969}
{"smiles": "CCC(C)(N)c1nc(=O)c(C(C)C)c(C)[nH]1.Cl", "stereo": "stereo not drawn", "A": 17.1, "B": -3.937, "C": 3.864}
{"smiles": "CC(Cn1cncc1-c1cnn(C2CCCCC2)c1)N1CCCCC1.Cl", "stereo": "stereo not drawn", "A": -14.82, "B": 25.02, "C": 20.46}
{"smiles": "Cc1n[nH]c(C)c1-c1nccnc1CC1CCCN(C)C1", "stereo": "stereo not drawn", "A": -2.147, "B": 7.224, "C": 2.72}
{"smiles": "COc1cc2c(cc1C1CC(=O)NCc3nc(N(C)C)sc31)CCC2", "stereo": "stereo not drawn", "A": -7.86, "B": 4.553, "C": 11.87}
{"smiles": "O=C(NCCn1ccnc1)c1csc2c1CCCC2", "A": -281.9, "B": 4.77, "C": 8.4}
{"smiles": "O=C1CCOC[C@]2(CN(Cc3ccccc3)C[C@H]2c2cccc(F)c2)N1", "A": -14.53, "B": -15.07, "C": -8.405}
{"smiles": "CC(C)(C)c1cn(C2CCN(C(=O)c3cncnc3)CC2)nn1", "A": -53.25, "B": -5.741, "C": -13.85}